This is one part of the list. Single values are uncertain, as repeats are few or missing.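 The apoptosis fraction was the count of cleaved-PARP antibody-stained nuclei relative to all DNA-stained nuclei, imaged in 1,536-well plates. Screening doses were set so most cells survived, and baseline and induced cleaved-PARP levels vary greatly across cell lines.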
Tested on: CBRC016 (line from a melanoma biopsy)
Assay: cleaved PARP positive nuclei fraction relative to DMSO control; melanoma cells; higher = more apoptosis
Conditions: library dose: low library concentration; 72 h

| SMILES | cleaved PARP positive nuclei fraction [%] |
| --- | --- |
| CN(c1ncccc1CNc1nc(Nc2ccc3c(c2)CC(=O)N3)ncc1C(F)(F)F)S(C)(=O)=O + Cn1c(=O)n(-c2ccc(C(C)(C)C#N)cc2)c2c3cc(-c4cnc5ccccc5c4)ccc3ncc21 [NVP-BEZ235] (first compound 0.08 µM, partner dose 0.004 µM) | 57.9 |
| NC(=O)c1ccc(N(C(N)=O)c2c(F)cccc2F)nc1-c1ccc(F)cc1F + CC(=O)c1c(C)c2cnc(Nc3ccc(N4CCNCC4)cn3)nc2n(C2CCCC2)c1=O [palbociclib] (first compound 0.4 µM, partner dose 0.04 µM) | 95.9 |
| CN(c1ncccc1CNc1nc(Nc2ccc3c(c2)CC(=O)N3)ncc1C(F)(F)F)S(C)(=O)=O + CCCS(=O)(=O)Nc1ccc(F)c(C(=O)c2c[nH]c3ncc(Cl)cc23)c1F [PLX4720] (first compound 0.08 µM, partner dose 0.08 µM) | 125 |
| CCCCCCCCc1ccc(CCC(N)(CO)CO)cc1 [fingolimod] + Nc1nc(F)nc2c1ncn2[C@@H]1O[C@H](CO)[C@@H](O)[C@@H]1O [fludarabine] (first compound 2 µM, partner dose 0.2 µM) | 32.6 |
| CCCCCCCCc1ccc(CCC(N)(CO)CO)cc1 [fingolimod] + CC(=O)c1c(C)c2cnc(Nc3ccc(N4CCNCC4)cn3)nc2n(C2CCCC2)c1=O [palbociclib] (first compound 2 µM, partner dose 0.04 µM) | 16700 |
| CC(=O)O[C@@]12CO[C@@H]1C[C@H](O)[C@@]1(C)C(=O)[C@H](O)C3=C(C)[C@@H](OC(=O)[C@H](O)[C@@H](NC(=O)OC(C)(C)C)c4ccccc4)C[C@@](O)([C@@H](OC(=O)c4ccccc4)[C@H]21)C3(C)C [Docetaxel] + Cc1cc(Nc2cc(N3CCN(C)CC3)nc(/C=C/c3ccccc3)n2)n[nH]1 [ENMD2076] (first compound 0.0001 µM, partner dose 0.04 µM) | 218 |
| CC1(C)CCC(c2ccc(Cl)cc2)=C(CN2CCN(c3ccc(C(=O)NS(=O)(=O)c4ccc(N[C@H](CCN5CCOCC5)CSc5ccccc5)c(S(=O)(=O)C(F)(F)F)c4)cc3)CC2)C1 + CCCS(=O)(=O)Nc1ccc(F)c(C(=O)c2c[nH]c3ncc(Cl)cc23)c1F [PLX4720] (first compound 0.4 µM, partner dose 0.08 µM) | 507 |
| CC(=O)O[C@@]12CO[C@@H]1C[C@H](O)[C@@]1(C)C(=O)[C@H](O)C3=C(C)[C@@H](OC(=O)[C@H](O)[C@@H](NC(=O)OC(C)(C)C)c4ccccc4)C[C@@](O)([C@@H](OC(=O)c4ccccc4)[C@H]21)C3(C)C [Docetaxel] + Cn1c(Nc2ccc(C(F)(F)F)cc2)nc2cc(Oc3ccnc(-c4ncc(C(F)(F)F)[nH]4)c3)ccc21 [CHIR265] (first compound 0.0001 µM, partner dose 0.08 µM) | 126 |
| Cn1sc(=O)n(Cc2ccccc2)c1=O + CC(C)C[C@H](NC(=O)[C@H](Cc1ccccc1)NC(=O)c1cnccn1)B(O)O [Bortezomib] (first compound 0.4 µM, partner dose 0.001 µM) | 41.3 |
| COc1ccc(C2=N[C@@H](c3ccc(Cl)cc3)[C@@H](c3ccc(Cl)cc3)N2C(=O)N2CCNC(=O)C2)c(OC(C)C)c1 [Nutlin-3] + C=CCNC1=C2C[C@@H](C)C[C@H](OC)[C@H](O)[C@@H](C)/C=C(\C)[C@H](OC(N)=O)[C@@H](OC)/C=C\C=C(/C)C(=O)NC(=CC1=O)C2=O [Tanespimycin] (first compound 0.1 µM, partner dose 0.002 µM) | 55.8 |
| C[C@@H](N)c1ccc(C(=O)Nc2ccnc3[nH]ccc23)cc1 + CC(C)C[C@H](NC(=O)[C@H](Cc1ccccc1)NC(=O)c1cnccn1)B(O)O [Bortezomib] (first compound 0.4 µM, partner dose 0.001 µM) | 209 |
| C[C@]1(O)C[C@@H](c2nc(-c3ccc4ccc(-c5ccccc5)nc4c3)c3c(N)nccn32)C1 + CS(=O)(=O)CCNCc1ccc(-c2ccc3ncnc(Nc4ccc(OCc5cccc(F)c5)c(Cl)c4)c3c2)o1 [lapatinib] (first compound 0.4 µM, partner dose 0.8 µM) | 86.4 |
| Cn1sc(=O)n(Cc2ccccc2)c1=O + CNC(=O)c1cc(Oc2ccc(NC(=O)Nc3ccc(Cl)c(C(F)(F)F)c3)cc2)ccn1 [sorafenib] (first compound 0.4 µM, partner dose 0.4 µM) | 90.7 |
| CN(c1ncccc1CNc1nc(Nc2ccc3c(c2)CC(=O)N3)ncc1C(F)(F)F)S(C)(=O)=O + CS(=O)(=O)CCNCc1ccc(-c2ccc3ncnc(Nc4ccc(OCc5cccc(F)c5)c(Cl)c4)c3c2)o1 [lapatinib] (first compound 0.08 µM, partner dose 0.8 µM) | 56 |
| CCCCCCCCc1ccc(CCC(N)(CO)CO)cc1 [fingolimod] + CC(=O)O[C@@]12CO[C@@H]1C[C@H](O)[C@@]1(C)C(=O)[C@H](O)C3=C(C)[C@@H](OC(=O)[C@H](O)[C@@H](NC(=O)OC(C)(C)C)c4ccccc4)C[C@@](O)([C@@H](OC(=O)c4ccccc4)[C@H]21)C3(C)C [Docetaxel] (first compound 2 µM, partner dose 0.0001 µM) | 235 |
| CCCCCCCCc1ccc(CCC(N)(CO)CO)cc1 [fingolimod] + COCC[n+]1c2c(n(Cc3cnccn3)c1C)C(=O)c1ccccc1C2=O [YM155] (first compound 2 µM, partner dose 0.0004 µM) | 32.5 |
| NC1(c2ccc(-c3nc4ccn5c(=O)[nH]nc5c4cc3-c3ccccc3)cc2)CCC1 + C[C@@H](Oc1cc(-c2cnn(C3CCNCC3)c2)cnc1N)c1c(Cl)ccc(F)c1Cl [Crizotinib] (first compound 0.4 µM, partner dose 0.2 µM) | 136 |
| C[C@]1(O)C[C@@H](c2nc(-c3ccc4ccc(-c5ccccc5)nc4c3)c3c(N)nccn32)C1 + Cc1cc(Nc2cc(N3CCN(C)CC3)nc(/C=C/c3ccccc3)n2)n[nH]1 [ENMD2076] (first compound 0.4 µM, partner dose 0.04 µM) | 33.6 |
| Cn1sc(=O)n(Cc2ccccc2)c1=O + C[C@@H](Oc1cc(-c2cnn(C3CCNCC3)c2)cnc1N)c1c(Cl)ccc(F)c1Cl [Crizotinib] (first compound 0.4 µM, partner dose 0.2 µM) | 47.3 |
| NC(=O)c1ccc(N(C(N)=O)c2c(F)cccc2F)nc1-c1ccc(F)cc1F + CCCCCCCCc1ccc(CCC(N)(CO)CO)cc1 [fingolimod] (first compound 0.4 µM, partner dose 2 µM) | 80.9 |
| NC1(c2ccc(-c3nc4ccn5c(=O)[nH]nc5c4cc3-c3ccccc3)cc2)CCC1 + CO[C@H]1C[C@@H]2CC[C@@H](C)[C@@](O)(O2)C(=O)C(=O)N2CCCC[C@H]2C(=O)O[C@H]([C@H](C)C[C@@H]2CC[C@@H](OCCO)[C@H](OC)C2)CC(=O)[C@H](C)/C=C(\C)[C@@H](O)[C@@H](OC)C(=O)[C@H](C)C[C@H](C)/C=C/C=C/C=C/1C [everolimus] (first compound 0.4 µM, partner dose 0.02 µM) | 154 |

Some of the entries so far, as tab-separated lines.
SMILES	cleaved PARP positive nuclei fraction [%]
CCCCCCCCc1ccc(CCC(N)(CO)CO)cc1 [fingolimod] + CC(=O)O[C@@]12CO[C@@H]1C[C@H](O)[C@@]1(C)C(=O)[C@H](O)C3=C(C)[C@@H](OC(=O)[C@H](O)[C@@H](NC(=O)OC(C)(C)C)c4ccccc4)C[C@@](O)([C@@H](OC(=O)c4ccccc4)[C@H]21)C3(C)C [Docetaxel] (first compound 2 µM, partner dose 0.0001 µM)	235
CCCCCCCCc1ccc(CCC(N)(CO)CO)cc1 [fingolimod] + COCC[n+]1c2c(n(Cc3cnccn3)c1C)C(=O)c1ccccc1C2=O [YM155] (first compound 2 µM, partner dose 0.0004 µM)	32.5

Reference: the supplement of paper PMC4604168 (melanoma cell lines)
